Test results from the supplement of paper PMC10849652.
Some of the results follow.

Sequences of proteins named here, by UniProt entry; tags and fusion partners are left off. A change or cut given only in a name is not applied to a line headed by its entry.
UniProt P51825: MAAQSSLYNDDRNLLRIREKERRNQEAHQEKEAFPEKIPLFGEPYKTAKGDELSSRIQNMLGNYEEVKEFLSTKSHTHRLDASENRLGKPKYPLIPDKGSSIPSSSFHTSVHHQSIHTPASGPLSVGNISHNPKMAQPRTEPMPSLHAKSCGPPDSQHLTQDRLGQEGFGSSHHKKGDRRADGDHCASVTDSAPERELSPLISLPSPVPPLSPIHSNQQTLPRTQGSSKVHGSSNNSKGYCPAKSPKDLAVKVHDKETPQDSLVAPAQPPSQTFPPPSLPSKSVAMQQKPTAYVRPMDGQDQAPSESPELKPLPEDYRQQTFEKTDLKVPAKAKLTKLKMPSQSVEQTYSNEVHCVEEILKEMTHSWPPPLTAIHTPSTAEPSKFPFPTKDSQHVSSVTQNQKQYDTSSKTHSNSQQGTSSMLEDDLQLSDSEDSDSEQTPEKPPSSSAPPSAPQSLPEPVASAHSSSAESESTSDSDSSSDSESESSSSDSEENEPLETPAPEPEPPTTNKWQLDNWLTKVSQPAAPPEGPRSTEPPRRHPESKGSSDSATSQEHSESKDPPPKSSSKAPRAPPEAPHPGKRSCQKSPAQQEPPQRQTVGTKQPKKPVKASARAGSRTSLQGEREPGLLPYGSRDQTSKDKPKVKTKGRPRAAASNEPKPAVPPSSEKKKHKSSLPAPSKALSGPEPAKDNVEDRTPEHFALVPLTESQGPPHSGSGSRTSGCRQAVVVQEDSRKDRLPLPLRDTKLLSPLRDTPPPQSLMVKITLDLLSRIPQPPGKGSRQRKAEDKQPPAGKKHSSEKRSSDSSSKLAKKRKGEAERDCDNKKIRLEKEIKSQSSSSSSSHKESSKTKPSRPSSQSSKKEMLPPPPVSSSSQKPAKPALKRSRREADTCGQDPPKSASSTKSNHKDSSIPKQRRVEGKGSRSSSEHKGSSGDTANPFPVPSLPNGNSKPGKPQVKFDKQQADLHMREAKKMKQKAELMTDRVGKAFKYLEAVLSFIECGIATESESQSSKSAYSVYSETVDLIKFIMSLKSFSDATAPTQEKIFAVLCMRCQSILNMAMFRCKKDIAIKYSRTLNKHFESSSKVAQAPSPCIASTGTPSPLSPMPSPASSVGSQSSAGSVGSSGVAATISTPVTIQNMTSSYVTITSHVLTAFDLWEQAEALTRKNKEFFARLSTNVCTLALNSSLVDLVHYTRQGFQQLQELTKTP
UniProt P42025, whole entry, looked up: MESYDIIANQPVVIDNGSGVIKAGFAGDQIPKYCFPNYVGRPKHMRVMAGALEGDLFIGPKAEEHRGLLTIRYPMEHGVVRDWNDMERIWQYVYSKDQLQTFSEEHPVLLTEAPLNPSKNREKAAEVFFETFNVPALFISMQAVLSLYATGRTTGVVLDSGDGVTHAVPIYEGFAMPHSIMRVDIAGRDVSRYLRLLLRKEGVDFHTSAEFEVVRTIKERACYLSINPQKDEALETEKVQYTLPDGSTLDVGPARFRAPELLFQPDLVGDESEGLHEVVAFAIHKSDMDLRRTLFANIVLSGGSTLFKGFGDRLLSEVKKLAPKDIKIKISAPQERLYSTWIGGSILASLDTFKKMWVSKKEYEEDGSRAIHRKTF
UniProt P24666: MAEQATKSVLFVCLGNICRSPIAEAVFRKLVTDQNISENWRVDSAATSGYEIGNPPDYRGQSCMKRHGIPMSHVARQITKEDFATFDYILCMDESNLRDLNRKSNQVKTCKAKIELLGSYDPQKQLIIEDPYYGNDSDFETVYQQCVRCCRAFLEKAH
UniProt P35611: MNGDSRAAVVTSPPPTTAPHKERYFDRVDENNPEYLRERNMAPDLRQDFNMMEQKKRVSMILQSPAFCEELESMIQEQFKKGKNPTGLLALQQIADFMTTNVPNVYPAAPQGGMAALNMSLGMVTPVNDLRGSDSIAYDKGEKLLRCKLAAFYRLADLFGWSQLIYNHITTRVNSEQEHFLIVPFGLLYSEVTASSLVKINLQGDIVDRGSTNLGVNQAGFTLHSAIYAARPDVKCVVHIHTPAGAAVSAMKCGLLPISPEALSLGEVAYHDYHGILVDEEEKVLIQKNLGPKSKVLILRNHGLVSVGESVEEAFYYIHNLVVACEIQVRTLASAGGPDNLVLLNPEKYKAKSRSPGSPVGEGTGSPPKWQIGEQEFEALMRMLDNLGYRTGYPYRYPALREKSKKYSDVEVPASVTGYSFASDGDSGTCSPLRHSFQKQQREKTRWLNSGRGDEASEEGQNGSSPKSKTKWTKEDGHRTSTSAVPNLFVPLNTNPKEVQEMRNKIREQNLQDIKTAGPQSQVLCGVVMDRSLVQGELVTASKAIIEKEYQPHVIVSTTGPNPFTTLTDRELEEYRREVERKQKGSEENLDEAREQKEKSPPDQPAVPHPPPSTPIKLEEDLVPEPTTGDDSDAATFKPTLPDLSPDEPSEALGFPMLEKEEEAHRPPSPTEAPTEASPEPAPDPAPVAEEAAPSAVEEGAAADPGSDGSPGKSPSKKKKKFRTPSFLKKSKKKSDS
UniProt Q16186: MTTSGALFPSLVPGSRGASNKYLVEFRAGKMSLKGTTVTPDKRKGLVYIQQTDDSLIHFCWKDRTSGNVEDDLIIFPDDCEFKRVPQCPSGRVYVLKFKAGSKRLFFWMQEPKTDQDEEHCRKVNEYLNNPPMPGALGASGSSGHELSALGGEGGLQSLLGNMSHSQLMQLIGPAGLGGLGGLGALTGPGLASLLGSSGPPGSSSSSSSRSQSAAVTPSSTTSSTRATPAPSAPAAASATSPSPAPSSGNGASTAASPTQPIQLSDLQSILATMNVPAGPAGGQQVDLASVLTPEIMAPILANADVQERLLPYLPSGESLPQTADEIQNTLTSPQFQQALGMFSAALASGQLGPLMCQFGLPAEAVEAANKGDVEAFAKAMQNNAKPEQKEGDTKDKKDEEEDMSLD
UniProt O00116: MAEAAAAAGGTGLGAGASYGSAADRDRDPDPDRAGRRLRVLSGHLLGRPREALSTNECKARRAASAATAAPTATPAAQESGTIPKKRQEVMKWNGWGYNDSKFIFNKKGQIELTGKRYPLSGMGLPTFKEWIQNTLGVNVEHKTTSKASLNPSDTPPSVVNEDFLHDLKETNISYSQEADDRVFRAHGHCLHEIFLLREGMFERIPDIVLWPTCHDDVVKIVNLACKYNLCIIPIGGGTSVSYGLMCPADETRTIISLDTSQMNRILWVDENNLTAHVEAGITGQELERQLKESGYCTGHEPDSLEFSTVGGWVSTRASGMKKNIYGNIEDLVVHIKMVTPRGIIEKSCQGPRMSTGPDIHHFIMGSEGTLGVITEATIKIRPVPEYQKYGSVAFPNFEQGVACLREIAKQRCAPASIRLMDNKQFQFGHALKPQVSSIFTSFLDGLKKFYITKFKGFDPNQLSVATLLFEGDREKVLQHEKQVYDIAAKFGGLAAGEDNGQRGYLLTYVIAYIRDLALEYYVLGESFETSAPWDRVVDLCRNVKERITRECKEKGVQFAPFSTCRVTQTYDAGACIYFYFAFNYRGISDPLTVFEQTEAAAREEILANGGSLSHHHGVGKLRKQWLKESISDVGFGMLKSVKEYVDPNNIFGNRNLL
UniProt P12814, whole entry, looked up: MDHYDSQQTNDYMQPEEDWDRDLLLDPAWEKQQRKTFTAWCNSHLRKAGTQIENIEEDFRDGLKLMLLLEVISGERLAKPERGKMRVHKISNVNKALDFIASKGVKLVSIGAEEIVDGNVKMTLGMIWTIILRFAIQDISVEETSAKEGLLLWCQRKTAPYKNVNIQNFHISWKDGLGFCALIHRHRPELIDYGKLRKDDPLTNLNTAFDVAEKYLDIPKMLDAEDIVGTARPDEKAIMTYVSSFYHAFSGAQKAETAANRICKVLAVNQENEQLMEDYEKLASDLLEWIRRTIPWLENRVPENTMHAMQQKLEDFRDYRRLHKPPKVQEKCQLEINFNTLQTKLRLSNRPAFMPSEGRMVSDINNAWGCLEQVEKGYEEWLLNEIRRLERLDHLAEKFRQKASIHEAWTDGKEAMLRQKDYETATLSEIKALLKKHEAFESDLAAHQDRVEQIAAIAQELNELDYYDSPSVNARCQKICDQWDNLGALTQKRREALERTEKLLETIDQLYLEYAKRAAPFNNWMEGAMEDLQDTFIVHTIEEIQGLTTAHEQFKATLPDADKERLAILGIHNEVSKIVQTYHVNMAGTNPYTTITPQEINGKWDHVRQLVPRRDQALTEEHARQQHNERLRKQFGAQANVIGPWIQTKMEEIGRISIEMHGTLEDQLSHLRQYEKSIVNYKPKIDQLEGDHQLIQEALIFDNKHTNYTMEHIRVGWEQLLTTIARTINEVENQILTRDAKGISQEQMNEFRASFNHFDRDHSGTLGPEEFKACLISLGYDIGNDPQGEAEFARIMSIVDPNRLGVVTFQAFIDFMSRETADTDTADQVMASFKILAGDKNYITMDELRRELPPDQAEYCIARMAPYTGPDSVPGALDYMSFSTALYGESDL
UniProt P30566: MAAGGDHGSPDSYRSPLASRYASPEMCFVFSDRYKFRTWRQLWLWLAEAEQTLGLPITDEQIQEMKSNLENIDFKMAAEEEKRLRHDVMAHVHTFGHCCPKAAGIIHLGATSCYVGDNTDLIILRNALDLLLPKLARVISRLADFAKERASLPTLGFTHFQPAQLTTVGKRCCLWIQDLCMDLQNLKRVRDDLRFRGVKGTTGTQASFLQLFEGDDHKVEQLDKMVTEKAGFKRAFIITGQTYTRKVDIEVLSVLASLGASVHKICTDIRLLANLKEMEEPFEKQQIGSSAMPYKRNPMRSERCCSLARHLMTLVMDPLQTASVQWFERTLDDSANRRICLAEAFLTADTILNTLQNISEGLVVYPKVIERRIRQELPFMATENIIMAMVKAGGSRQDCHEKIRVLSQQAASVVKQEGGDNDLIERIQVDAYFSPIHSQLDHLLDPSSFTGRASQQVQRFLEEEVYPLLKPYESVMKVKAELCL
UniProt Q9UKV8, whole entry, looked up: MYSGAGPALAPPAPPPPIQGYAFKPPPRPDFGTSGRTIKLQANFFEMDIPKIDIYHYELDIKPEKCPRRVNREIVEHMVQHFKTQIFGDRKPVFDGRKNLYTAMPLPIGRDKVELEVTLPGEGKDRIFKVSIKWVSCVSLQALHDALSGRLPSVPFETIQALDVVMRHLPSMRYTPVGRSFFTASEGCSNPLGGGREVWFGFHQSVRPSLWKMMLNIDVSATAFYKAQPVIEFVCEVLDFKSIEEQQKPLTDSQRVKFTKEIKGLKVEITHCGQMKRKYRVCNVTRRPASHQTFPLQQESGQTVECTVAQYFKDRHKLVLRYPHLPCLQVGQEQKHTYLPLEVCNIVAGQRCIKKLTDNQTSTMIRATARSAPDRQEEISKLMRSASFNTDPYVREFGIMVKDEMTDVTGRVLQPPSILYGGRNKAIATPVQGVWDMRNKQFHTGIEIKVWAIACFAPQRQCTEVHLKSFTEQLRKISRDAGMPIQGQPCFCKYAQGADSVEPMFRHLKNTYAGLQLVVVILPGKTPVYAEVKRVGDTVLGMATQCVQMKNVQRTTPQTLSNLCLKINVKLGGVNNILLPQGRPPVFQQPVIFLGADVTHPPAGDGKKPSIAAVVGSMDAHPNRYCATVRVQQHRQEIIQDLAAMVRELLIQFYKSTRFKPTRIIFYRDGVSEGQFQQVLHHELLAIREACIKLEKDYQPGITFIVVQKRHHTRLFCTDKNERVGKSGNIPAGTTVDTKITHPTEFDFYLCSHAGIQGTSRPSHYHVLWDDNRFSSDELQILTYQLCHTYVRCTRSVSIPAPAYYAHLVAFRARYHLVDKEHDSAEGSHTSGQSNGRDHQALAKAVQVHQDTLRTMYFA
UniProt Q13443: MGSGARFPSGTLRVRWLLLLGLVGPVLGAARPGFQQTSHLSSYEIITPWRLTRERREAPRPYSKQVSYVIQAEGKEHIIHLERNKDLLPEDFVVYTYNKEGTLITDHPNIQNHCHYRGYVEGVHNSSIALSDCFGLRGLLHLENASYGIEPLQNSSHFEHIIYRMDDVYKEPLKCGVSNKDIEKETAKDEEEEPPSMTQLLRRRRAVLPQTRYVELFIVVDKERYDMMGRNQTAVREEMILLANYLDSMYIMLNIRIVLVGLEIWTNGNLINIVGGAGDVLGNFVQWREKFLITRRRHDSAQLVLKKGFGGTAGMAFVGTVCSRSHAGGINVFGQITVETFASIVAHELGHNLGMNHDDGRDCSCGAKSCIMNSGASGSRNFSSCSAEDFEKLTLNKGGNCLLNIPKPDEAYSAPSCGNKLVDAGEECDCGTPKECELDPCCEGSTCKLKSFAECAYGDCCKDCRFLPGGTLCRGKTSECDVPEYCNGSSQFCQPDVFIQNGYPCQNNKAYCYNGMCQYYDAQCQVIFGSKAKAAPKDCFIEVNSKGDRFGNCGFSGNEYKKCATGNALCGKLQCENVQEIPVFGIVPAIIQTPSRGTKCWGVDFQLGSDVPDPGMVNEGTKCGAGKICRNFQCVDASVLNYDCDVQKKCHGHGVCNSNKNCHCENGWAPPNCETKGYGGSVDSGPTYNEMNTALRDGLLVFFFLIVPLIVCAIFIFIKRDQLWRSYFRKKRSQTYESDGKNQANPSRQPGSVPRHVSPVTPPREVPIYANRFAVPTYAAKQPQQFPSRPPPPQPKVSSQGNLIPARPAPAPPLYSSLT

Assays:
Assay in all cases: log2 fold change, soluble protein after heating vs DMSO (PISA); higher = thermal stabilisation; K562 lysate, 10 uM; active = over 0.2 and 3.5 SD of the protein, either way, in both replicates (recomputed)
alvocidib = compound: CN1CC[C@H](c2c(O)cc(O)c3c(=O)cc(-c4ccccc4Cl)oc23)[C@H](O)C1 [alvocidib]
How it was run: (§1)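 Quantification was by TMTpro 16plex LC-MS/MS with equalised channel sums, applied to the supernatant after 21,000xg for 90 min. Samples were crude K562 extract at 1 mg/mL protein in PBS pH 7.4 with 1 mM MgCl2, treated with 10 μM compound for 30 min, heated for 3 min across 48°C-58°C, pooled and brought to 0.5% NP-40 at 4°C. Values are log-two fold changes in thermal stability relative to solvent controls, from duplicates.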

Tubastatin A = compound: CN1CCc2c(c3ccccc3n2Cc2ccc(C(=O)NO)cc2)C1 [Tubastatin A]
How it was run: as §1

[1] = compound: CNC(=O)C1=CC=CC=C1NC2=NC(=NC=C2Cl)NC3=C(C=C(C=C3)N4CCOCC4)OC
How it was run: as §1

defactinib = compound: CNC(=O)c1ccc(Nc2ncc(C(F)(F)F)c(NCc3nccnc3N(C)S(C)(=O)=O)n2)cc1 [defactinib]
How it was run: as §1

[2] = compound: CNc1nc(-c2ccc3c(N)n[nH]c3c2)cc(N2C[C@@H](C(=O)NC3CCCCC3)CC[C@H]2C)n1
How it was run: as §1

encorafenib = compound: COC(=O)N[C@@H](C)CNc1nccc(-c2cn(C(C)C)nc2-c2cc(Cl)cc(NS(C)(=O)=O)c2F)n1 [encorafenib]
How it was run: as §1

[3] = compound: COC(=O)[C@H](CCSC)NC(=O)C1=C(C=C(C=C1)NC[C@H](CS)N)C2=CC=CC=C2
How it was run: as §1

alisertib = compound: COc1cc(Nc2ncc3c(n2)-c2ccc(Cl)cc2C(c2c(F)cccc2OC)=NC3)ccc1C(=O)O [alisertib]
How it was run: as §1

[4] = compound: COc1cc2nc(-c3cc(F)ccc3O)nc(N[C@@H]3CNC[C@H]3C(C)(C)O)c2cc1OC
How it was run: as §1

gefitinib = compound: COc1cc2ncnc(Nc3ccc(F)c(Cl)c3)c2cc1OCCCN1CCOCC1 [gefitinib]
How it was run: as §1

Measured: log2 fold change

AFF1 isoform 2 (UniProt P51825)
inactive: alvocidib -0.157 | Tubastatin A 0.052 | [1] 0.076 | defactinib 0.083 | [2] 0.004 | encorafenib -0.001 | [3] -0.033 | alisertib -0.043 | [4] 0.157 | gefitinib -0.323

AGAP3 isoform 4 (UniProt Q96P47)
inactive: alvocidib -0.005 | Tubastatin A -0.017 | [1] 0.044 | defactinib -0.02 | [2] -0.026 | encorafenib 0.038 | [3] 0.025 | alisertib -0.005 | [4] -0.001 | gefitinib 0.026

AK2 (UniProt P54819)
inactive: alvocidib -0.003 | Tubastatin A 0.05 | [1] -0.019 | defactinib 0.016 | [2] 0.033 | encorafenib -0.025 | [3] -0.018 | alisertib 0.008 | [4] -0.025 | gefitinib 0.019

ACTR1B (UniProt P42025)
inactive: alvocidib 0.012 | Tubastatin A 0.025 | [1] -0.028 | defactinib -0.022 | [2] 0.096 | encorafenib -0.019 | [3] 0.084 | alisertib 0.006 | [4] -0.01 | gefitinib 0.057

AFDN isoform 1 (UniProt P55196)
inactive: alvocidib 0.014 | Tubastatin A -0.039 | [1] 0 | defactinib -0.009 | [2] 0.012 | encorafenib 0.022 | [3] -0.022 | alisertib 0.005 | [4] -0.006 | gefitinib -0.031

ACTR3 (UniProt P61158)
inactive: alvocidib -0.007 | Tubastatin A 0.013 | [1] -0.011 | defactinib -0.005 | [2] -0.08 | encorafenib 0 | [3] -0.025 | alisertib 0.01 | [4] -0.031 | gefitinib -0.013

ACY1 (UniProt Q03154)
inactive: alvocidib 0.011 | Tubastatin A 0.01 | [1] 0.001 | defactinib 0.022 | [2] -0.054 | encorafenib 0.01 | [3] -0.043 | alisertib 0 | [4] -0.014 | gefitinib -0.027

ACP1 isoform 2 (UniProt P24666)
inactive: alvocidib 0.018 | Tubastatin A -0.049 | [1] 0.04 | defactinib 0.064 | [2] 0.016 | encorafenib -0.067 | [3] -0.011 | alisertib 0.015 | [4] 0.023 | gefitinib -0.016

2 records picked at random from those above:
ACTR1B (UniProt P42025)
inactive: alvocidib 0.012 | Tubastatin A 0.025 | [1] -0.028 | defactinib -0.022 | [2] 0.096 | encorafenib -0.019 | [3] 0.084 | alisertib 0.006 | [4] -0.01 | gefitinib 0.057

AGAP3 isoform 4 (UniProt Q96P47)
inactive: alvocidib -0.005 | Tubastatin A -0.017 | [1] 0.044 | defactinib -0.02 | [2] -0.026 | encorafenib 0.038 | [3] 0.025 | alisertib -0.005 | [4] -0.001 | gefitinib 0.026

Carrying on:

ADSS1 (UniProt Q8N142)
inactive: alvocidib -0.041 | Tubastatin A 0.042 | [1] 0.016 | defactinib -0.083 | [2] -0.031 | encorafenib 0.012 | [3] -0.019 | alisertib 0.004 | [4] -0.053 | gefitinib 0.013

ADD1 isoform 3 (UniProt P35611)
inactive: alvocidib 0.016 | Tubastatin A 0.007 | [1] -0.013 | defactinib 0.015 | [2] 0.031 | encorafenib 0.004 | [3] -0.034 | alisertib 0.03 | [4] 0.006 | gefitinib -0.01

ADRM1 (UniProt Q16186)
inactive: alvocidib 0.009 | Tubastatin A -0.064 | [1] -0.027 | defactinib 0.003 | [2] 0.011 | encorafenib -0.033 | [3] 0.118 | alisertib 0.032 | [4] -0.001 | gefitinib -0.009

AGPS (UniProt O00116)
inactive: alvocidib -0.011 | Tubastatin A 0.039 | [1] -0.046 | defactinib -0.003 | [2] 0.011 | encorafenib -0.005 | [3] -0.125 | alisertib 0.035 | [4] -0.03 | gefitinib -0.002

ACTA1 (UniProt P68133)
inactive: alvocidib 0.009 | Tubastatin A -0.023 | [1] -0.015 | defactinib -0.003 | [2] 0.004 | encorafenib -0.003 | [3] 0.04 | alisertib 0.017 | [4] -0.015 | gefitinib -0.033

AFP (UniProt P02771)
inactive: alvocidib 0.033 | Tubastatin A 0.016 | [1] 0.024 | defactinib 0.006 | [2] 0.035 | encorafenib -0.005 | [3] -0.014 | alisertib -0.002 | [4] -0.045 | gefitinib 0.032

AHCY (UniProt P23526)
inactive: alvocidib -0.007 | Tubastatin A 0.012 | [1] 0.013 | defactinib -0.019 | [2] 0.019 | encorafenib -0.021 | [3] -0.068 | alisertib 0.006 | [4] 0.007 | gefitinib -0.002

AGPAT3 isoform 3 (UniProt Q9NRZ7)
inactive: alvocidib -0.035 | Tubastatin A -0.079 | [1] 0.001 | defactinib -0.006 | [2] -0.009 | encorafenib 0.006 | [3] -0.076 | alisertib 0.05 | [4] 0.035 | gefitinib 0.006

ACSM3 (UniProt Q53FZ2)
inactive: alvocidib 0.008 | Tubastatin A -0.01 | [1] -0.023 | defactinib 0.001 | [2] 0 | encorafenib -0.007 | [3] 0.093 | alisertib -0.019 | [4] 0.014 | gefitinib 0.013

AIFM2 (UniProt Q9BRQ8)
inactive: alvocidib -0.032 | Tubastatin A 0.044 | [1] 0.114 | defactinib 0.045 | [2] 0.099 | encorafenib 0.024 | [3] 0.107 | alisertib -0.032 | [4] -0.034 | gefitinib 0.038

ADPRH (UniProt P54922)
inactive: alvocidib 0.006 | Tubastatin A 0.031 | [1] 0.003 | defactinib 0.09 | [2] 0.031 | encorafenib -0.156 | [3] 0.04 | alisertib -0.163 | [4] 0.062 | gefitinib -0.002

ACP1 (UniProt P24666)
inactive: alvocidib -0.092 | Tubastatin A -0.093 | [1] -0.021 | defactinib -0.013 | [2] -0.045 | encorafenib -0.062 | [3] 0.022 | alisertib -0.005 | [4] 0.031 | gefitinib -0.022

ACOX1 isoform 2 (UniProt Q15067)
active: [3] -0.255
inactive: alvocidib -0.049 | Tubastatin A 0.041 | [1] 0.012 | defactinib 0.012 | [2] 0.017 | encorafenib -0.015 | alisertib 0 | [4] 0.01 | gefitinib 0.018

ADA (UniProt P00813)
inactive: alvocidib -0.006 | Tubastatin A 0.077 | [1] -0.009 | defactinib -0.022 | [2] 0.015 | encorafenib 0.015 | [3] -0.001 | alisertib -0.019 | [4] 0.008 | gefitinib 0.045

ACSS2 isoform 2 (UniProt Q9NR19)
inactive: alvocidib 0.046 | Tubastatin A -0.061 | [1] 0.002 | defactinib 0.003 | [2] -0.052 | encorafenib -0.027 | [3] 0.027 | alisertib -0.027 | [4] 0.01 | gefitinib 0.003

ACTN1 isoform 3 (UniProt P12814)
inactive: alvocidib -0.001 | Tubastatin A 0.031 | [1] 0.014 | defactinib -0.022 | [2] 0.003 | encorafenib -0.021 | [3] -0.017 | alisertib -0.003 | [4] 0.008 | gefitinib -0.016

ADSL (UniProt P30566)
inactive: alvocidib 0.04 | Tubastatin A 0.043 | [1] 0 | defactinib -0.014 | [2] 0.013 | encorafenib -0.02 | [3] -0.196 | alisertib -0.001 | [4] 0.001 | gefitinib -0.007

AHCYL2 (UniProt Q96HN2)
inactive: alvocidib -0.05 | Tubastatin A -0.031 | [1] 0.028 | defactinib 0.016 | [2] 0.144 | encorafenib -0.004 | [3] -0.05 | alisertib -0.059 | [4] 0.024 | gefitinib -0.026

ADH5 (UniProt P11766)
inactive: alvocidib 0.018 | Tubastatin A 0.042 | [1] -0.011 | defactinib -0.039 | [2] -0.009 | encorafenib -0.03 | [3] 0.016 | alisertib -0.004 | [4] 0.014 | gefitinib -0.014

ADAT3 (UniProt Q96EY9)
inactive: alvocidib -0.011 | Tubastatin A -0.042 | [1] 0 | defactinib 0.027 | [2] 0.006 | encorafenib -0.003 | [3] -0.065 | alisertib -0.012 | [4] -0.019 | gefitinib -0.021

AGO2 (UniProt Q9UKV8)
inactive: alvocidib 0.016 | Tubastatin A -0.009 | [1] 0.009 | defactinib -0.001 | [2] 0.039 | encorafenib 0.018 | [3] -0.061 | alisertib -0.016 | [4] 0.009 | gefitinib 0.046

ADAM9 (UniProt Q13443)
inactive: alvocidib -0.013 | Tubastatin A 0.023 | [1] -0.001 | defactinib 0.055 | [2] -0.032 | encorafenib 0.022 | [3] -0.004 | alisertib 0.011 | [4] -0.059 | gefitinib -0.018
